The results in this text go back to the supplement of paper PMC12819154, “High-throughput peptide-centric local stability assay extends protein–ligand identification to membrane proteins, tissues and bacteria” (Nature Structural & Molecular Biology, 2025).

By UniProt entry, the sequences of proteins in these tests, tags left out. Where a name states a change or a piece, a line headed by the entry shows the natural chain unless it says otherwise.
UniProt Q4G148: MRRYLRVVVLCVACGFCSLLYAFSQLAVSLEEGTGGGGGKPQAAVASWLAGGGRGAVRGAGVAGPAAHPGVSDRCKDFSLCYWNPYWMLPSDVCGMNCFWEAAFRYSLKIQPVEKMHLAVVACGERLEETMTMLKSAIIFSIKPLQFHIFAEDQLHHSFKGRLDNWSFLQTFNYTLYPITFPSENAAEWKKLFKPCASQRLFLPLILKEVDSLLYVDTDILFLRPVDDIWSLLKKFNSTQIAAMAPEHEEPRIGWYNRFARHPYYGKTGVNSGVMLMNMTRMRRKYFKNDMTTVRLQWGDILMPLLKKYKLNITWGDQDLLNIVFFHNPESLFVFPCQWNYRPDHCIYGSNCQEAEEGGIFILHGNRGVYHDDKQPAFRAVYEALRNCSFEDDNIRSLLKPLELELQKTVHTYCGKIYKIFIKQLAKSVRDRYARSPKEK
UniProt Q460N5, whole entry: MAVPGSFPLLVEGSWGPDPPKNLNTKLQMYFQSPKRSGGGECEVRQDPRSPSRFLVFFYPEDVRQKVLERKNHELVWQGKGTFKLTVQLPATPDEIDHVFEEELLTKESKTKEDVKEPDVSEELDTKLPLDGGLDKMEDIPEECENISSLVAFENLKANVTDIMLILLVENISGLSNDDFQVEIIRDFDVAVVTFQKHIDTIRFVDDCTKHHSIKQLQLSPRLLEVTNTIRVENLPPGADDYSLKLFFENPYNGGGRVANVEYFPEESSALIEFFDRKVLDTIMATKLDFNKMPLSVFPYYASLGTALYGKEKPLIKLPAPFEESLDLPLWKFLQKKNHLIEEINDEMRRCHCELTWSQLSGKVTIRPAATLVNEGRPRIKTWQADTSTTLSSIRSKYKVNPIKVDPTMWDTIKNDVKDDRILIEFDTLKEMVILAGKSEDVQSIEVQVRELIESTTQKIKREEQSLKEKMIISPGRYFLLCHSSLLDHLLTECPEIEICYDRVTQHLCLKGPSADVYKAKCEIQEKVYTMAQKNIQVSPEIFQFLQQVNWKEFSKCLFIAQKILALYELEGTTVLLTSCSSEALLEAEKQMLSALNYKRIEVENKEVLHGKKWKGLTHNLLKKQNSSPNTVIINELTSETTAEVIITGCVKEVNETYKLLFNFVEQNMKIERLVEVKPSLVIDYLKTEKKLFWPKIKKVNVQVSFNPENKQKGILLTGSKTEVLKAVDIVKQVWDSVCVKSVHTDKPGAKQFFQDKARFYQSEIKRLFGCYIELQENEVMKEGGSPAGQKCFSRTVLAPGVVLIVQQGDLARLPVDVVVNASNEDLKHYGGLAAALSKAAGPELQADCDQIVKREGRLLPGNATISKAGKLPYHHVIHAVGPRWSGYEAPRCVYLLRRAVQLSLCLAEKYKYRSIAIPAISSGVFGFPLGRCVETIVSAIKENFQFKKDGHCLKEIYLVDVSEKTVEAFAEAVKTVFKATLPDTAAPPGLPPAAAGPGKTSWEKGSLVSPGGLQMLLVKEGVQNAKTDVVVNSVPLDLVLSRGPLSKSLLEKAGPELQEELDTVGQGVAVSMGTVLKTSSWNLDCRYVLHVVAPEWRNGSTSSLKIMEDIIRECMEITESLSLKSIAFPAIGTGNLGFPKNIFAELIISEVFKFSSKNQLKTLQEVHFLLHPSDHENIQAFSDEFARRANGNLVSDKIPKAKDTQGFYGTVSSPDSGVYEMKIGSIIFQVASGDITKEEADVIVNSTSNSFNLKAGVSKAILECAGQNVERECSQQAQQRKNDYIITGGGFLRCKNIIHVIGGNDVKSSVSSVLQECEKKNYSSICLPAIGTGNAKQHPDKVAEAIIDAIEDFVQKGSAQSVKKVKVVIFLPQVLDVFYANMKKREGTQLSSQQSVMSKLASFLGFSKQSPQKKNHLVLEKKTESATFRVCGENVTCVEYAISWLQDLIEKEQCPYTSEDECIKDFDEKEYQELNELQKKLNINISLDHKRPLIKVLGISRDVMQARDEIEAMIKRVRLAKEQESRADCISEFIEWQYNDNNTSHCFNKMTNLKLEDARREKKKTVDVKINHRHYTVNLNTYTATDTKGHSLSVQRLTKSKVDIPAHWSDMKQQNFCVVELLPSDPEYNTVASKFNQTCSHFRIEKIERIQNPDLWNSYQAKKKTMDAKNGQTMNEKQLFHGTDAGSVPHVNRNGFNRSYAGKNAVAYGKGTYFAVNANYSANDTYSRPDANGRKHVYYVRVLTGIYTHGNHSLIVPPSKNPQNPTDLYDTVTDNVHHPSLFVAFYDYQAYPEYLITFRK
UniProt Q5T280: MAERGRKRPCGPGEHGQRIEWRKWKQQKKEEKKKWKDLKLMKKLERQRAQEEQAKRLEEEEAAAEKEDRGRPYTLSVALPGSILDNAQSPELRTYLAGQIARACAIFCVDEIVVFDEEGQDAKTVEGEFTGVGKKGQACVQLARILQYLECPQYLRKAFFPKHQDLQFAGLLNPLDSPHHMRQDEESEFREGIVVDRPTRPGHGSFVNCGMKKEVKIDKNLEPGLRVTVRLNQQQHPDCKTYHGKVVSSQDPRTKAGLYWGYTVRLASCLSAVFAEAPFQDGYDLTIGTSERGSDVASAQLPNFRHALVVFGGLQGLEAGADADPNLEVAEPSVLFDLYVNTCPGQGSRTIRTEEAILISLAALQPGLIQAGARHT
UniProt Q587I9: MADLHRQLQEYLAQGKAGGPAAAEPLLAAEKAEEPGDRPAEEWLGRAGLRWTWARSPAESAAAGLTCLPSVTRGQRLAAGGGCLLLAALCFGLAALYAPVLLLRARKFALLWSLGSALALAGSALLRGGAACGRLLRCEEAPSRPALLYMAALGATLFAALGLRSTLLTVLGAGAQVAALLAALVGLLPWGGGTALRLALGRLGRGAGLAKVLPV
UniProt Q53SF7, whole entry: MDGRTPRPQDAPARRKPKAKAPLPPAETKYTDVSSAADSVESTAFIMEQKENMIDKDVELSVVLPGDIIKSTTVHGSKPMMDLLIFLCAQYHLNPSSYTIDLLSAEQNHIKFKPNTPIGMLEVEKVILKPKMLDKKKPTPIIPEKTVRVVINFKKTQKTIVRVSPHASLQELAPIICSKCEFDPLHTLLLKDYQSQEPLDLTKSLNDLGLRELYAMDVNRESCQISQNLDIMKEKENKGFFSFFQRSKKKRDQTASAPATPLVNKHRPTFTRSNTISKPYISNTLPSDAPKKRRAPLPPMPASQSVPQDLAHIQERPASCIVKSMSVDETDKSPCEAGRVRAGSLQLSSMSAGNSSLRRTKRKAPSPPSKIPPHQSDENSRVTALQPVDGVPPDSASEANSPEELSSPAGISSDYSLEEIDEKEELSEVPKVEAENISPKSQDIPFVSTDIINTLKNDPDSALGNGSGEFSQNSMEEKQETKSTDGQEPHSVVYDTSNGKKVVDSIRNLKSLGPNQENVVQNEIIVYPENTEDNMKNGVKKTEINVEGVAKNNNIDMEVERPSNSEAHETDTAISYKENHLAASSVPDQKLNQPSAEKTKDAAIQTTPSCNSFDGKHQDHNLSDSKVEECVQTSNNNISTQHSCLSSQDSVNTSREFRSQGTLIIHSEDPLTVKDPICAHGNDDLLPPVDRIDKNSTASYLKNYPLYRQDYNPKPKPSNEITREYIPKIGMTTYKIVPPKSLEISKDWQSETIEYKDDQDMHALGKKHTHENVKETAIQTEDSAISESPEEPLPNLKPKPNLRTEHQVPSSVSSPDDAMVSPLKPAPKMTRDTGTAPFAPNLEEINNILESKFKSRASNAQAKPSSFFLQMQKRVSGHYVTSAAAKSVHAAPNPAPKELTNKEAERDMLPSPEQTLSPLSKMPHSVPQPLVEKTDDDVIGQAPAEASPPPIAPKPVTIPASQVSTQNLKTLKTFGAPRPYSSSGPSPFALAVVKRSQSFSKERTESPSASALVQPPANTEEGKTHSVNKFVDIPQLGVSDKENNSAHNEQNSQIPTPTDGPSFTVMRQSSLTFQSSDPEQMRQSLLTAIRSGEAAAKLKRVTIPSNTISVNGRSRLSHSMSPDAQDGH
UniProt Q5TCS8: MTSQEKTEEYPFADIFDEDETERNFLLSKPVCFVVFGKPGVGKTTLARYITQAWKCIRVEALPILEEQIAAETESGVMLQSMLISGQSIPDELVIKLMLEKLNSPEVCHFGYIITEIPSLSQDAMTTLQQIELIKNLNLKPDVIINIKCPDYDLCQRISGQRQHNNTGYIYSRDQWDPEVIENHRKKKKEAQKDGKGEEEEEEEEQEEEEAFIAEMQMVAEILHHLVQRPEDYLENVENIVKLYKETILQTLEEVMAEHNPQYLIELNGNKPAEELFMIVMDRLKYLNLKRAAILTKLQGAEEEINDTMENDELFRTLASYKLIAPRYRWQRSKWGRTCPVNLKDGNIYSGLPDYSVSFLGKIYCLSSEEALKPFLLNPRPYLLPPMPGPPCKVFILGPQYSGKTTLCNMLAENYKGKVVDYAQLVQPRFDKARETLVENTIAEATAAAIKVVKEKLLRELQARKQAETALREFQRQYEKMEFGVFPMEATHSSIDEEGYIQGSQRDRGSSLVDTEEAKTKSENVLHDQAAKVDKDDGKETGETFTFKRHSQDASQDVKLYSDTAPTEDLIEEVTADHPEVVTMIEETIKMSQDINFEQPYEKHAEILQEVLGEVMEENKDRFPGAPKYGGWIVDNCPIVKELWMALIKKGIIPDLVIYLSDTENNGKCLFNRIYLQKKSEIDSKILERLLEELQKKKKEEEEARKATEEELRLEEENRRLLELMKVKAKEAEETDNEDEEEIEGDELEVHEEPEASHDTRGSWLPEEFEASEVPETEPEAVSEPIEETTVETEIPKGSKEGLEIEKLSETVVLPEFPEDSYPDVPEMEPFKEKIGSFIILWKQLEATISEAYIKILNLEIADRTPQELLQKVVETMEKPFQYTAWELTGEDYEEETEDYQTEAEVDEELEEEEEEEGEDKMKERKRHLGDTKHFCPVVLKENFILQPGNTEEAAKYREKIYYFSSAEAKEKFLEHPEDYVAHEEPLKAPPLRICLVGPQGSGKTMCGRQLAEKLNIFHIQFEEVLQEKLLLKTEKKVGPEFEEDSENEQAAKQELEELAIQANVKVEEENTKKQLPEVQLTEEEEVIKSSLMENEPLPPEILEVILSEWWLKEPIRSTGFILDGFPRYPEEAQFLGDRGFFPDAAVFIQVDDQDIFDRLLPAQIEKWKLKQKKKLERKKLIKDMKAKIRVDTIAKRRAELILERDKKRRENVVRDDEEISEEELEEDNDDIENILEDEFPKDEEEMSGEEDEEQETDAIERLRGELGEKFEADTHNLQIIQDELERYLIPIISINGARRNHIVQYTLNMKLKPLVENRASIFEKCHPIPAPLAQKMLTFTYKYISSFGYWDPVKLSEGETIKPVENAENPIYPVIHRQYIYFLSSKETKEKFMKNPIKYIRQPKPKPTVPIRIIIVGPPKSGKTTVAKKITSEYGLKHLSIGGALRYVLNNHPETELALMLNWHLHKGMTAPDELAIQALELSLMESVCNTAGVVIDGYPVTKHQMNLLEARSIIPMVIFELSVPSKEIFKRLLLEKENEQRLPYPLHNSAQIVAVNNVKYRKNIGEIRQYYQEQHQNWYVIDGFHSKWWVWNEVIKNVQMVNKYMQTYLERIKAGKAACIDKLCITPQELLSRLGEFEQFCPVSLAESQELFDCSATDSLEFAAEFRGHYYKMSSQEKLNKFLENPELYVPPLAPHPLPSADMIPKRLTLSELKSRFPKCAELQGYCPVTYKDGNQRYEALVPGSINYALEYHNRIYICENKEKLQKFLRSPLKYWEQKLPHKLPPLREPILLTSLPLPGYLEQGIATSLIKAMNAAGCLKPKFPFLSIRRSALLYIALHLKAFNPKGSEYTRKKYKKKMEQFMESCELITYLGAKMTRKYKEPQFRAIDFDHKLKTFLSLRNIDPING
UniProt Q504T8: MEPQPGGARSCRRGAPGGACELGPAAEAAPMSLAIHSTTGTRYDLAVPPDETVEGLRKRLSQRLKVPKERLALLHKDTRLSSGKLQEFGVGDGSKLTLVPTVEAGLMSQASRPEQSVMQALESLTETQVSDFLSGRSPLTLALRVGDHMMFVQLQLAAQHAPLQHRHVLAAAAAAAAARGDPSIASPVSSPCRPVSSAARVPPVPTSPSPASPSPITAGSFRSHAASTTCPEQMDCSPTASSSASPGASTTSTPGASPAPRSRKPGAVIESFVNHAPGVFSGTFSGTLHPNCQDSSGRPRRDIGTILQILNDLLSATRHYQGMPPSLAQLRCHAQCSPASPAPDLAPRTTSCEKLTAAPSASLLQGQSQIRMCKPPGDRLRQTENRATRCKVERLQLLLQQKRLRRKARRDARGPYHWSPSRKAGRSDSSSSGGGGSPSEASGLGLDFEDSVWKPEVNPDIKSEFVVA

The list shows a part of the results. Small differences around the control level are noise.

Compound in this assay: Cc1nc(Nc2ncc(C(=O)Nc3c(C)cccc3Cl)s2)cc(N2CCN(CCO)CC2)n1 [dasatinib]
The assay is described as follows: log2 fold change of tryptic peptide abundance, ligand vs vehicle (limited proteolysis) (log2 ratio); higher = more trypsin-susceptible (destabilized). The settings on record: ligand concentration: 5 uM; sample: K562 cleared lysate.
Turning to “UniProt Q4G148 (peptide sequence: SLLKPLELELQK, peptide start residue: 397)”, the log2 fold change was 0.126.

Consider “CCDC88A (peptide sequence: TQQMNNDLEKLTHELEK, peptide start residue: 918) (UniProt Q3V6T2)”, for which the log2 fold change worked out at 0.642.

In the case of “PARP14 (peptide sequence: GLTHNLLK, peptide start residue: 616) (UniProt Q460N5)”, the log2 fold change was -0.232.

Take “UniProt Q53TQ3 (peptide sequence: HASDDDDAESR, peptide start residue: 357)”: the log2 fold change turned out to be 0.764.

Turning to “EAPP (peptide sequence: IPTNDELLYDPEKDNR, peptide start residue: 131) (UniProt Q56P03)”, the log2 fold change was -0.101.

Consider “RARS2 (peptide sequence: IVVEFSSPNVAKK, peptide start residue: 127) (UniProt Q5T160)”, for which the log2 fold change amounted to 0.63.

Regarding “UniProt Q5T280 (peptide sequence: RLEEEEAAAEK, peptide start residue: 56)”, the log2 fold change was -0.429.

On to “SFT2D3 (peptide sequence: QLQEYLAQGK, peptide start residue: 7) (UniProt Q587I9)”, for which the log2 fold change came to 0.0426.

With “CYBRD1 (peptide sequence: NLALDEAGQR, peptide start residue: 274) (UniProt Q53TN4)”, the log2 fold change is -0.0642.

As to “UniProt Q496Y0 (peptide sequence: KHCQIESQEETGMPNK, peptide start residue: 422)”, the log2 fold change turned out to be 0.724.

As to “COQ5 (peptide sequence: VYQVFESVAK, peptide start residue: 68) (UniProt Q5HYK3)”, the log2 fold change came out at 0.12.

Consider “GRIPAP1 (peptide sequence: KAMLDELAMETLQEK, peptide start residue: 430) (UniProt Q4V328)”, for which the log2 fold change amounted to 0.287.

With “COBLL1 (peptide sequence: SVHAAPNPAPK, peptide start residue: 887) (UniProt Q53SF7)”, the log2 fold change was 0.345.

For “UniProt Q5TCS8 (peptide sequence: KEEEEARK, peptide start residue: 699)”, the log2 fold change was 0.248.

As for “DNAJC21 (peptide sequence: AWYDNHR, peptide start residue: 63) (UniProt Q5F1R6)”, the log2 fold change is -0.173.

In the case of “UniProt Q5T440 (peptide sequence: YLQGVPEGVR, peptide start residue: 224)”, the log2 fold change turned out to be 0.068.

In the case of “FAM102B (peptide sequence: IAEPNLDTADKEDTASEKLSR, peptide start residue: 261) (UniProt Q5T8I3)”, the log2 fold change is 1.16.

In the case of “UniProt Q3ZCT1 (peptide sequence: SHTGEKPYGCNECGK, peptide start residue: 233)”, the log2 fold change was 0.0185.

With “MRPL2 (peptide sequence: TKYTITPVK, peptide start residue: 70) (UniProt Q5T653)”, the log2 fold change is -0.119.

Consider “RBM20 (peptide sequence: ARQPSPFVDDCKTR, peptide start residue: 1056) (UniProt Q5T481)”, for which the log2 fold change was 0.881.

Turning to “MRPL51 (peptide sequence: AMFGVYDNIGILGNFEKHPK, peptide start residue: 52) (UniProt Q4U2R6)”, the log2 fold change was -0.0157.

Consider “UniProt Q504T8 (peptide sequence: CHAQCSPASPAPDLAPR, peptide start residue: 332)”, for which the log2 fold change was -0.467.

“ATF7IP2 (peptide sequence: NKHEGIADK, peptide start residue: 355) (UniProt Q5U623)”: the log2 fold change was found to be 0.0867.

As to “ARHGAP15 (peptide sequence: QGTGAVQMR, peptide start residue: 19) (UniProt Q53QZ3)”, the log2 fold change was -0.413.

As to “SAMD4B (peptide sequence: QFPMPPR, peptide start residue: 575) (UniProt Q5PRF9)”, the log2 fold change stood at 0.219.

As to “UniProt Q3MJ13 (peptide sequence: LLEGGSLVK, peptide start residue: 441)”, the log2 fold change stood at 0.149.

Consider “LIN9 (peptide sequence: RRCEEEAQEIVR, peptide start residue: 433) (UniProt Q5TKA1)”, for which the log2 fold change amounted to 0.659.

Take “C2CD3 (peptide sequence: ENTEPSSTQFQVPSRPR, peptide start residue: 197) (UniProt Q4AC94)”: the log2 fold change was -0.359.

Regarding “TOR1AIP1 (peptide sequence: MQNDSILK, peptide start residue: 301) (UniProt Q5JTV8)”, the log2 fold change is -0.45.
